PubChem BioAssay AID540276 (National Center for Advancing Translational Sciences (NCATS), 2011)
Out of some 300,000 compounds screened, about 5,400 (1.8%) were called active. The shares of active, inactive and inconclusive entries below differ from those in the screen. Calls follow the shape of the full dose curve; tested in HEK293 cells. Potencies of inconclusive entries are doubtful fits and often do not repeat.

Assay: qHTS for inhibitors of binding or entry into cells for Marburg Virus
Conditions: Marburg virus pseudotyped entry inhibition, cell reporter; activity change, negative = inhibition: at 37.8 µM (top of the series) unless noted
% is scaled to controls: 0 for no effect and ±100 for the full control effect; potency is read from the fitted curve at half-maximal effect.

SMILES	Potency	activity change, negative = inhibition
O=[N+]([O-])c1ccc(Sc2cccc3cccnc23)c2cccnc12	inconclusive: 25.9 µM [inhibitor, single point]	
CC1CCN(C(=O)c2ccc(NS(=O)(=O)c3cccs3)cc2)CC1	inconclusive: 22.4 µM [inhibitor, single point]	
CN(C)S(=O)(=O)c1cccc(NC(=O)c2cc3c(=O)n4ccccc4nc3s2)c1	inconclusive: 2.82 µM [inhibitor, single point]	
COc1ccc(C(=O)NCc2nnc(SCC(=O)NC3CCCC3)o2)cc1	inconclusive: 0.562 µM [inhibitor, full curve, poor fit]	
CCc1cc2c(=O)c(-c3cscn3)coc2cc1OC		inactive: -3.45%
C/C(=N\NC(=O)c1c(C)nc2ccccn12)c1cccc([N+](=O)[O-])c1		inactive: 3.06% [at 46.1 µM]
O=c1c([N+](=O)[O-])cn(Cc2ccccc2)c(=O)n1Cc1ccccc1	inconclusive: 14.1 µM [inhibitor, partial curve, poor fit]	
COc1ccc2c(C)nc(Nc3nc(-c4ccccc4)cc(=O)[nH]3)nc2c1	inconclusive: 0.82 µM [inhibitor, full curve, poor fit]	
C=CCOc1nc2c(c(=O)n(C)c(=O)n2C)n1Cc1ccc(Cl)cc1	inconclusive: 35.5 µM [activator, single point]	
CCOc1ccc2nc(N(CCN(CC)CC)C(=O)c3cccc([N+](=O)[O-])c3)sc2c1	inconclusive: 6.31 µM [activator, partial curve, poor fit]	
CC(C)n1c(O)c(N=NC(=O)C2COc3ccccc3O2)c2ccccc21 (configuration not stated)	inconclusive: 17.8 µM [inhibitor, single point]	
O=C(CN1C(=O)NC2(CCCCCC2)C1=O)c1ccc(Cl)s1	inconclusive: 35.5 µM [activator, single point]	
CC(=O)N(c1ccccc1)c1nc2ccccc2s1	inconclusive: 20 µM [activator, partial curve, poor fit]	
CN(CC(=O)Nc1cccc(F)c1)C(=O)CCc1nc2cc(S(=O)(=O)N3CCOCC3)ccc2n1C	inconclusive: 20 µM [activator, single point]	
Cc1nc2ccc(NC(=O)c3c(-c4ccccc4)noc3C)cc2s1	inconclusive: 7.08 µM [inhibitor, partial curve, poor fit]	
C=C1C(=O)OC2C1C(OC(=O)C(C)=CC)CC(=C)C1C(O)C3OC3(C)C21O (configuration not stated)		inactive: -23%
O=C(CC1C(=O)NCCN1Cc1cccc(Oc2ccccc2)c1)NCCCn1cccn1 (configuration not stated)		inactive: 30.7% [at 46.1 µM]
COc1ccc(CNc2oc(-c3ccc(COc4ccccc4C)o3)nc2C#N)cc1	inconclusive: 8.91 µM [inhibitor, partial curve, poor fit]	
Cc1ccc2c(c1)C1CN(C)CCC1N2C(=O)COc1ccc(N(C)S(=O)(=O)c2cccs2)cc1 (configuration not stated)	inconclusive: 11.2 µM [inhibitor, partial curve, poor fit]	
Cc1ccc(Cn2c(=N)n(CC(=O)c3ccc([N+](=O)[O-])cc3)c3ccccc32)cc1	inconclusive: 12.6 µM [inhibitor, single point]	
CC1CC(C)CN(C(=O)c2ccc(S(=O)(=O)N3CC(C)CC(C)C3)cc2)C1 (configuration not stated)	inconclusive: 15.8 µM [inhibitor, single point]	
O=c1oc2ccccc2cc1-c1cn2cc(Cc3ccc(Cl)cc3)sc2n1		inactive: -22.8% [at 46.1 µM]
COc1ccc2[nH]cc(C(=O)NCCc3ccccc3)c(=O)c2c1	inconclusive: 0.794 µM [inhibitor, full curve, poor fit]	

SMILES	Potency	activity change, negative = inhibition
CC(C)(C)NS(=O)(=O)c1cc(C(=O)Nc2sccc2C#N)ccc1Cl	inconclusive: 10 µM [inhibitor, partial curve, poor fit]	
CCN(CCCl)Cc1ccccc1Br	inconclusive: 11.2 µM [inhibitor, partial curve, poor fit]	
CC(C)c1ccccc1NC(=O)COC(=O)/C=C/c1cccc([N+](=O)[O-])c1	inconclusive: 0.146 µM [inhibitor, full curve, poor fit]	
O=c1[nH]cnc2scc(-c3ccc(-c4ccccc4)cc3)c12	inconclusive: 18.3 µM [inhibitor, single point]	
O=C(C[n+]1cc(-c2ccc(F)cc2)n2c1CCC2)N1c2ccccc2Sc2ccccc21		inactive: 15.7%
COc1cc(C(C[N+](=O)[O-])c2c(C)cc3ccccn23)ccc1O (configuration not stated)		inactive: -22% [at 46.1 µM]
CCOC(=O)c1cc(-c2ccccc2)sc1NC(=O)C(C)N1C(=O)c2ccccc2C1=O (configuration not stated)	inconclusive: 25.1 µM [inhibitor, single point]	
c1ccc(SCc2nc3ccccc3s2)nc1	inconclusive: 35.5 µM [inhibitor, single point]	
C=CCn1c(CNc2ccccc2)nnc1SCC(=O)N/N=C/c1ccccc1O	inconclusive: 35.5 µM [inhibitor, single point]	
OCCC1CN(Cc2ccsc2)CCN1C1CCCC1 (configuration not stated)	inconclusive: 3.55 µM [activator, single point]	
O=C(NN=Cc1ccccc1O)C(O)c1ccccc1 (configuration not stated)	inconclusive: 22.4 µM [inhibitor, partial curve, poor fit]	
CCOC(=O)CNC(=O)c1ccc2c(c1)OCCO2		inactive: 23.1%
CC(C)CCNC(=O)CN1N=C(c2ccc(Cl)cc2)CCC1=O	inconclusive: 6.31 µM [activator, single point]	
Fc1ccc(CSc2nnc(Cc3sc(-c4ccccc4)nc3-c3ccccc3)o2)cc1		inactive: -6.46%
Cc1cc(C(c2ccc(O)cc2)c2cc(C)c(O)cc2C)c(C)cc1O	inconclusive: 10 µM [inhibitor, partial curve, poor fit]	
CCOC(=O)c1cnc(SCc2ccc(Cl)c(Cl)c2)nc1N1CC1		inactive: -21%
Cc1ccc(C(=O)Nc2ccccc2SCC2CSc3nc4ccccc4c(=O)n32)cc1 (configuration not stated)	active: 3.16 µM	
COc1ccc(C2C(C(=O)Nc3cccnc3)=C(C)Nc3nc(-c4cccs4)nn32)cc1 (configuration not stated)	inconclusive: 14.6 µM [inhibitor, partial curve, poor fit]	
CCOC(=O)CSC1=C(C#N)[C@H](c2ccc3c(c2)OCO3)CC(=O)N1	active: 15.8 µM	
O=C(CN1CCN(c2ccccc2)CC1)Nc1ccccc1Sc1ccccc1	active: 4.47 µM	
O=C(Cn1nnc2ccccc21)NCc1ccccc1	inconclusive: 1.12 µM [activator, partial curve, poor fit]	
CCSc1nnc(NC(=O)NC(C)(C(F)(F)F)C(F)(F)F)s1	inconclusive: 35.5 µM [inhibitor, single point]	
COc1ccc(C(=O)OCc2nnc(-c3ccccc3)o2)cc1S(=O)(=O)N1CCOCC1	inconclusive: 35.5 µM [activator, single point]	

Exported comma-delimited: 16 of the compounds above
SMILES,Potency,"activity change, negative = inhibition"
CCc1cc2c(=O)c(-c3cscn3)coc2cc1OC,,inactive: -3.45%
C=CCOc1nc2c(c(=O)n(C)c(=O)n2C)n1Cc1ccc(Cl)cc1,"inconclusive: 35.5 µM [activator, single point]",
CN(CC(=O)Nc1cccc(F)c1)C(=O)CCc1nc2cc(S(=O)(=O)N3CCOCC3)ccc2n1C,"inconclusive: 20 µM [activator, single point]",
C=C1C(=O)OC2C1C(OC(=O)C(C)=CC)CC(=C)C1C(O)C3OC3(C)C21O (configuration not stated),,inactive: -23%
O=C(CC1C(=O)NCCN1Cc1cccc(Oc2ccccc2)c1)NCCCn1cccn1 (configuration not stated),,inactive: 30.7% [at 46.1 µM]
Cc1ccc(Cn2c(=N)n(CC(=O)c3ccc([N+](=O)[O-])cc3)c3ccccc32)cc1,"inconclusive: 12.6 µM [inhibitor, single point]",
CC(C)(C)NS(=O)(=O)c1cc(C(=O)Nc2sccc2C#N)ccc1Cl,"inconclusive: 10 µM [inhibitor, partial curve, poor fit]",
CC(C)c1ccccc1NC(=O)COC(=O)/C=C/c1cccc([N+](=O)[O-])c1,"inconclusive: 0.146 µM [inhibitor, full curve, poor fit]",
O=c1[nH]cnc2scc(-c3ccc(-c4ccccc4)cc3)c12,"inconclusive: 18.3 µM [inhibitor, single point]",
OCCC1CN(Cc2ccsc2)CCN1C1CCCC1 (configuration not stated),"inconclusive: 3.55 µM [activator, single point]",
CCOC(=O)CNC(=O)c1ccc2c(c1)OCCO2,,inactive: 23.1%
CC(C)CCNC(=O)CN1N=C(c2ccc(Cl)cc2)CCC1=O,"inconclusive: 6.31 µM [activator, single point]",
Cc1cc(C(c2ccc(O)cc2)c2cc(C)c(O)cc2C)c(C)cc1O,"inconclusive: 10 µM [inhibitor, partial curve, poor fit]",
COc1ccc(C2C(C(=O)Nc3cccnc3)=C(C)Nc3nc(-c4cccs4)nn32)cc1 (configuration not stated),"inconclusive: 14.6 µM [inhibitor, partial curve, poor fit]",
O=C(CN1CCN(c2ccccc2)CC1)Nc1ccccc1Sc1ccccc1,active: 4.47 µM,
O=C(Cn1nnc2ccccc21)NCc1ccccc1,"inconclusive: 1.12 µM [activator, partial curve, poor fit]",

Further structures.

SMILES	Potency	activity change, negative = inhibition
COc1cc(C(=O)OCCCN2CCOCC2)ccc1O		inactive: 24.4% [at 46.1 µM]
CNC(=O)c1sc(-c2cccs2)nc1C		inactive: 7.05% [at 46.1 µM]
CCOC(=O)C1CCN(C(=O)COC(=O)CN(C)S(=O)(=O)c2ccc(NC(C)=O)cc2)CC1	inconclusive: 0.708 µM [activator, full curve]	
Cc1cccc(C(=O)NNC(=O)CCC(=O)Nc2cccc(Cl)c2C)c1	inconclusive: 3.16 µM [activator, single point]	
C=CCNc1nc(-c2ccccc2)c(C(=O)OCC)cc1C#N	inconclusive: 0.501 µM [inhibitor, full curve, poor fit]	
CC(=O)NC1=NC(=O)C(C)S1 (configuration not stated)	inconclusive: 5.62 µM [inhibitor, single point]	
CCN(CC)c1ncn(Cc2c(Cl)cccc2Cl)c2ncnc1-2		inactive: 1.17% [at 46.1 µM]
CSc1ccc(CN2CCN(C(C)C)C(CCO)C2)cc1 (configuration not stated)	inconclusive: 1.58 µM [activator, partial curve, poor fit]	
CSCC[C@H](N)C(=O)N1CCC(C(=O)N[C@H](C)C(=O)Nc2ccc(C(C)C)cc2)CC1	inconclusive: 35.5 µM [inhibitor, partial curve, poor fit]	
Cc1ccc(C)c(S(=O)(=O)N2CCCC2CNC(=O)C(=O)NCCc2ccco2)c1 (configuration not stated)	inconclusive: 35.5 µM [inhibitor, single point]	
COc1ccc(OC)c(N(CC(=O)Nc2cccc(C(F)(F)F)c2)S(C)(=O)=O)c1	inconclusive: 15.8 µM [inhibitor, single point]	
O=C(O)CC(=O)Nc1cc(Cl)ccc1O		inactive: 2.57%
CC(=O)Nc1ccc(NC(=O)c2cc(-c3cc(C)c(C)cc3O)n[nH]2)cc1		inactive: -1.57%
C#CCCCO/N=C1\C[C@@H](O)[C@@H](O)[C@@H]2[C@@H]3C(=O)N(C[C@@H]4CCCO4)C(=O)[C@@H]3CC[C@H]12		inactive: 4.05% [at 14.2 µM]
O=C(Nc1ccc(-c2cn3cccnc3n2)cc1)c1cc(Br)ccc1Cl		inactive: 18.6% [at 46.1 µM]
Cc1ccccc1C(=O)Nc1cccc(NC(=O)c2ccc(-c3ccc(Br)cc3)o2)c1	inconclusive: 35.5 µM [inhibitor, single point]	
CCOCCCNC(=O)C(NC(=O)c1ccc(=O)[nH]c1)c1ccccc1 (configuration not stated)	inconclusive: 2.51 µM [activator, full curve, poor fit]	
O=C1C2C3C=CC(CC3)C2C(=O)N1c1ccc([N+](=O)[O-])cc1 (configuration not stated)		inactive: -0.319%
CC(C)(C)SCCNC(=O)c1ccc(Cl)c([N+](=O)[O-])c1	inconclusive: 29.1 µM [inhibitor, single point]	
CC(NS(=O)(=O)c1ccc(OCC(=O)NCc2cccnc2)cc1)c1ccccc1 (configuration not stated)		inactive: 6.95% [at 46.1 µM]
CC1(C)CCC2=C(O1)c1ccccc1C(=O)C2=O	active: 12.6 µM	
